Data published in the supplement of paper PMC4683952.
Structures can show the parent of a compound that is named as a salt. About 50 (4%) of roughly 1,200 compounds showed activity. No stated cut-off is given here; in the data, all actives reach 1.3 or more but so do some inactives. This is one part of the list.

The molecules below were run on Lgr5 (MarsCy1-Lgr5-EGFP, U2OS) (assay: cell-surface Lgr5 expression (SCi1 fluorescence, background-subtracted) relative to WT DMSO (fold of DMSO control); higher = more Lgr5 at the plasma membrane, active = hit call of the paper). Settings: U2OS MarsCy1-Lgr5-EGFP stable; treatment time: overnight; 16 µM; library: Johns Hopkins Clinical Compound Library.

Row | Structure (SMILES) | cell-surface Lgr5 expression
1 | COc1cc2nc(N3CCN(C(=O)C4CCCO4)CC3)nc(N)c2cc1OC (stereo unspecified) [Terazosin] | inactive: 1.05
2 | CC1CCC(NC(=O)N(CCCl)N=O)CC1 (stereo unspecified) [Semustine] | inactive: 1.06
3 | C[N+]1(C)CCC(=C(c2ccccc2)c2ccccc2)CC1 [Diphemanil methylsulfate] | inactive: 0.814
4 | O=c1[nH]c(=O)n([C@H]2C[C@H](O)[C@@H](CO)O2)cc1F [Floxuridine (5-fluorodeoxyuridine)] | inactive: 0.664
5 | CNNCc1ccc(C(=O)NC(C)C)cc1 [Procarbazine HCl] | inactive: 1.19
6 | CC(=O)Oc1cc(C(C)C)c(OCCN(C)C)cc1C [Moxisylyte hydrochloride] | inactive: 0.943
7 | O=P([O-])([O-])[O-].[Bi+3] [Bismuth (III) phosphate] | inactive: 0.855
8 | C[C@@H]1C(=O)O[C@H]2C[C@@]34[C@H]5C[C@@H](C(C)(C)C)[C@]36[C@@H](OC(=O)[C@@H]6O)O[C@@]4(C(=O)O5)[C@]21O [Ginkgolide A] | inactive: 0.772
9 | NC(=O)c1ncn([C@@H]2O[C@H](CO)[C@@H](O)[C@H]2O)c1N [Acadesine (AICAR)] | inactive: 1.19
10 | CCC(=O)O[C@H]1[C@H](O[C@@H]2[C@@H](C)[C@H](O[C@H]3C[C@@](C)(OC)[C@@H](O)[C@H](C)O3)[C@@H](C)C(=O)O[C@H](CC)[C@@](C)(O)[C@H](O)[C@@H](C)C(=O)[C@H](C)C[C@@]2(C)O)O[C@H](C)C[C@@H]1N(C)C [Erythromycin estolate] | inactive: 0.567
11 | Cc1ccc(S(=O)(=O)NCl)cc1 [Chloramine-T hydrate] | inactive: 0.672
12 | C[C@@H]1O[C@@H]1P(=O)(O)O [Fosfomycin calcium (Phosphomycin calcium salt)] | inactive: 0.949
13 | C[C@@H]1O[C@@H]1P(=O)(O)O [Fosfomycin tromethamine] | inactive: 0.897
14 | C[C@@H]1CN(c2c(F)c(N)c3c(=O)c(C(=O)O)cn(C4CC4)c3c2F)C[C@H](C)N1 [Sparfloxacin] | inactive: 0.826
15 | CN1CCN(C2=Nc3ccccc3Sc3ccc(Cl)cc32)CC1 [Clothiapine] | inactive: 0.886
16 | O=C([O-])C(O)C(O)C(=O)[O-].[K+].[Na+] (stereo unspecified) [Potassium sodium tartrate tetrahydrate] | inactive: 1.1
17 | CCn1cc(C(=O)O)c(=O)c2cc(F)c(N3CCNC(C)C3)c(F)c21 (stereo unspecified) [Lomefloxacin] | inactive: 0.897
18 | COc1cc(C)nc(-n2nc(C)cc2OC)n1 [Epirizole (Mepirizole)] | inactive: 1.12
19 | CS(=O)(=O)Nc1ccc([N+](=O)[O-])cc1Oc1ccccc1 [Nimesulide] | inactive: 1.13
20 | CNC(=C[N+](=O)[O-])NCCSCc1csc(CN(C)C)n1 [Nizatidine] | inactive: 0.896
21 | OCc1ccccc1 [Benzyl alcohol] | inactive: 0.798
22 | CO[C@@H]1[C@@H](O[C@@H]2O[C@H](C)[C@@H](O[C@H]3C[C@@](C)(O)[C@@H](OC(=O)CC(C)C)[C@H](C)O3)[C@H](N(C)C)[C@H]2O)[C@@H](CC=O)C[C@@H](C)C(=O)/C=C/[C@@H]2O[C@@H]2C[C@@H](C)OC(=O)C[C@H]1OC(C)=O [Carbomycin (Magnamycin A)] | inactive: 0.996

As entered above:
OCc1ccccc1 [Benzyl alcohol] | cell-surface Lgr5 expression: inactive: 0.798
CC(=O)Oc1cc(C(C)C)c(OCCN(C)C)cc1C [Moxisylyte hydrochloride] | cell-surface Lgr5 expression: inactive: 0.943

Next entries follow.

Row | Structure (SMILES) | cell-surface Lgr5 expression
23 | C[C@H]1[C@H](NC(=O)/C(=N\OC(C)(C)C(=O)O)c2csc(N)n2)C(=O)N1S(=O)(=O)O [Aztreonam] | inactive: 0.88
24 | CCc1c2c(nc3ccc(OC(=O)N4CCC(N5CCCCC5)CC4)cc13)-c1cc3c(c(=O)n1C2)COC(=O)[C@]3(O)CC [Irinotecan hydrochloride trihydrate] | inactive: 0.897
25 | CSCC[C@H](N)C(=O)O [l-methionine] | inactive: 1.14
26 | Cc1ccc(/C(=C\CN2CCCC2)c2ccccn2)cc1 [Triprolidine] | inactive: 0.932
27 | CC(C)(O/N=C(\C(=O)N[C@@H]1C(=O)N2C(C(=O)[O-])=C(C[n+]3ccccc3)CS[C@H]12)c1csc(N)n1)C(=O)O [Ceftazidime] | inactive: 0.744
28 | CCCCCCCC/C=C\CCCCCCCC(=O)[O-].[K+] [Oleic acid, potassium salt] | inactive: 1.17
29 | NC(=O)c1ncn([C@@H]2O[C@H](CO)[C@@H](O)[C@H]2O)c1O [Mizoribine] | inactive: 1.05
30 | CCC(=O)[C@@]1(C)[C@H](C)C[C@H]2[C@@H]3CCC4=CC(=O)C=C[C@]4(C)[C@H]3[C@@H](O)C[C@@]21C [Rimexolone] | active: 1.39
31 | CC(=O)Nc1c(I)c(NC(C)=O)c(I)c(C(=O)O)c1I [Meglumine diatrizoate] | inactive: 1.15
32 | CC(=O)Nc1c(I)c(NC(C)=O)c(I)c(C(=O)O)c1I [Sodium diatrizoate] | inactive: 0.829
33 | CN(N=O)C(=O)N[C@@H](C=O)[C@@H](O)[C@H](O)[C@H](O)CO [Streptozocin] | inactive: 1.05
34 | CCOC(=O)Nc1ccc2c(c1)N(C(=O)CCN1CCOCC1)c1ccccc1S2 [Moricizine hydrochloride] | inactive: 0.934
35 | O=c1c(-c2ccc(O)cc2)coc2cc(O)cc(O)c12 [Genistein] | inactive: 0.977
36 | O=C([O-])CC(O)(CC(=O)[O-])C(=O)[O-].[Li+].[Li+].[Li+] [Tri-lithium citrate] | inactive: 1.06
37 | C[N+](C)(C)CCO.O=C([O-])CC(O)(CC(=O)O)C(=O)O [Choline dihydrogen citrate] | inactive: 0.803
38 | CC(C)(CO)[C@@H](O)C(=O)NCCCO [Dexpanthenol (D-Panthenol)] | inactive: 1.2
39 | CNC[C@H](O)c1cccc(O)c1 [L-Phenylephrine hydrochloride] | inactive: 0.598
40 | CCOc1ccccc1C(N)=O [Ethenzamide (2-ethoxybenzamide)] | inactive: 1.23
41 | NS(=O)(=O)c1ccc(C(=O)O)cc1 [Carzenide (4-Carboxybenzenesulfonamide, 97%)] | active: 1.3
42 | CCN(CC)CCCC(C)Nc1c2ccc(Cl)cc2nc2ccc(OC)cc12 (stereo unspecified) [Quinacrine] | inactive: 0.864
43 | Cc1nc(C)c(Cl)c(O)c1Cl [Clopidol] | inactive: 1.05
44 | CCCCCCCCCCCCCCCC[N+](C)(C)CCN(Cc1ccc(OC)cc1)c1ncccn1 [Thonzonium bromide] | inactive: 1.56

Row | Structure (SMILES) | cell-surface Lgr5 expression
45 | CC1=C(C)C(=O)C(CCCCC#CCCCC#CCO)=C(C)C1=O [Docebenone (AA-861)] | inactive: 1.25
46 | C#C[C@]1(O)CC[C@H]2[C@@H]3CCc4cc(OC)ccc4[C@H]3CC[C@@]21C [Mestranol (Ethynylestradiol 3-Methyl Ester)] | inactive: 0.929
47 | CC(C)NCC(O)c1ccc(NS(C)(=O)=O)cc1 (stereo unspecified) [Sotalol] | inactive: 1.13
48 | O.O.O.O.O.O.O=C([O-])CCC(=O)[O-].[Na+].[Na+] [Sodium succinate dibasic hexahydrate] | inactive: 1.06
49 | Clc1ccccc1CN1CCc2sccc2C1 [Ticlopidine] | inactive: 0.943
50 | Cc1cc(C(C)(C)CC(C)(C)C)ccc1OCCOCC[N+](C)(C)Cc1ccccc1 [Methylbenzethonium chloride] | active: 1.67
51 | CN(C)CCCN1c2ccccc2CCc2ccc(Cl)cc21 [Clomipramine] | inactive: 1.29
52 | C#C[C@]1(OC(C)=O)CC[C@H]2[C@@H]3CCC4=C[C@@H](OC(C)=O)CC[C@@H]4[C@H]3CC[C@@]21C [Ethynodiol diacetate] | inactive: 1.02
53 | Nc1ccc(S(=O)(=O)Nc2ncccn2)cc1 [Sulfadiazine] | inactive: 0.819
54 | CO[C@@]1(NC(=O)C(C(=O)O)c2ccc(O)cc2)C(=O)N2C(C(=O)O)=C(CSc3nnnn3C)CO[C@@H]21 (stereo partly specified) [Moxalactam] | inactive: 0.813
55 | CCCCCCCCCCCCOS(=O)(=O)[O-].[Na+] [Sodium lauryl sulfate (Sodium dodecyl sulfate)] | inactive: 0.864
56 | CCCCCCCCCCCCOS(=O)(=O)[O-].[Na+] [Sodium lauryl sulfate (SDS)] | inactive: 0.793
57 | CC[N+](CC)(CC)CC [Tetraethylammonium chloride hydrate] | inactive: 1.13
58 | CCC(Br)(CC)C(=O)NC(=O)NC(C)=O [Acecarbromal (acetylcarbromal)] | inactive: 1.07
59 | Clc1ccc2c(c1)N=C(N1CCNCC1)c1ccccc1N2 [N-Desmethylclozapine] | inactive: 0.803
60 | CC(=O)OC/C=C(C)/C=C/C=C(C)/C=C/C1=C(C)CCCC1(C)C [Vitamin A acetate (all trans-Retinol acetate)] | inactive: 1.09
61 | CC(=O)OC/C=C(C)/C=C/C=C(C)/C=C/C1=C(C)CCCC1(C)C [Vitamin A (acetate)] | inactive: 0.841
62 | NS(=O)(=O)c1cc2c(cc1Cl)N=C(CSCc1ccccc1)NS2(=O)=O [Benzthiazide] | inactive: 0.919
63 | CS(=O)(=O)c1ccc([C@@H](O)[C@@H](CO)NC(=O)C(Cl)Cl)cc1 [Thiamphenicol] | inactive: 1.01
64 | C[C@@H](c1ncncc1F)[C@](O)(Cn1cncn1)c1ccc(F)cc1F [Voriconazole] | inactive: 0.371
65 | O=C(O)Cc1ccccc1Nc1c(Cl)cccc1Cl [Diclofenac sodium salt] | inactive: 1.04
66 | Br.N [Ammonium bromide] | inactive: 1.09

Nos. 61 through 62, quoted:
Row | Structure (SMILES) | cell-surface Lgr5 expression
61 | CC(=O)OC/C=C(C)/C=C/C=C(C)/C=C/C1=C(C)CCCC1(C)C [Vitamin A (acetate)] | inactive: 0.841
62 | NS(=O)(=O)c1cc2c(cc1Cl)N=C(CSCc1ccccc1)NS2(=O)=O [Benzthiazide] | inactive: 0.919
